Experimental data from publication PMC10724275.
These are yes or no findings as the source states them, for the method shown. Binding seen in cells or lysates may run through a third protein. Some results given as binding are weak or reduced against the parent protein; the word gives no strength.

Amino acid sequences for entries named in this document (tags omitted).
UniProt Q13309: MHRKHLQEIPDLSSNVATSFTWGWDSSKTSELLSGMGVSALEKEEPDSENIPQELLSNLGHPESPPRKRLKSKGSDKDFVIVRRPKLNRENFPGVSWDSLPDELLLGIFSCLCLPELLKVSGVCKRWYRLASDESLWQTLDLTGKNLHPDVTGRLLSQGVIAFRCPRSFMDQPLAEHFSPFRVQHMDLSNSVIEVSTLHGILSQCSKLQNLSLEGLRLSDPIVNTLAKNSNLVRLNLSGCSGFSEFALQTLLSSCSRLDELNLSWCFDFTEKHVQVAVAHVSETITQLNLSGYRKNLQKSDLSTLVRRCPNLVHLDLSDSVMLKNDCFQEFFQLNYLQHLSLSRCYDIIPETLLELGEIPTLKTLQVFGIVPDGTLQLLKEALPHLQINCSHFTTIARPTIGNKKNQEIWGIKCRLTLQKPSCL

Columns and labels:
[1] = target: S-phase kinase-associated protein-2 (SKP2) (human (endogenous in RD and JR1)) (UniProt Q13309); test: co-IP; endogenous SKP2 precipitated with anti-SKP2 mouse antibody from 1.5 mg whole-cell extract of RD and JR1 cells; Triton buffer (50 mM Tris-HCl pH 7.5, 250 mM NaCl, 50 mM NaF, 1 mM EDTA, 0.1% Triton), 4 °C overnight, Dynabeads protein A or G; western blot
[2] = target: S-phase kinase-associated protein-2 (SKP2) (human (endogenous in RD and JR1)) (UniProt Q13309); test: proximity ligation; DuoLink PLA in situ on RD and JR1 cells with antibodies against SKP2 and the partner; single antibodies alone as negative controls; confocal microscopy

B1: p57^Kip2 (protein, UniProt P49918 1-316)
chain: MSDASLRSTSTMERLVARGTFPVLVRTSACRSLFGPVDHEELSRELQARLAELNAEDQNRWDYDFQQDMPLRGPGRLQWTEVDSDSVPAFYRETVQVGRCRLLLAPRPVAVAVAVSPPLEPAAESLDGLEEAPEQLPSVPVPAPASTPPPVPVLAPAPAPAPAPVAAPVAAPVAVAVLAPAPAPAPAPAPAPAPVAAPAPAPAPAPAPAPAPAPAPDAAPQESAEQGANQGQRGQEPLADQLHSGISGRPAAGTAAASANGAAIKKLSGPLISDFFAKRKRSAPEKSSGDVPAPCPSPSAAPGVGSVEQTPRKRLR
**Q.** Which binding [1] does the source give for B1 here?
**A.** Its binding is “binds”.

**Q.** What about the binding [2] of the same binder?
**A.** Its binding is “binds”.
